According to patent US20220340906:
Results from cells or extracts need not show a direct contact.

The chains behind the UniProt entries cited, without tags or fusion partners. Residues count along the entry.
UniProt Q99JW5, 24-315: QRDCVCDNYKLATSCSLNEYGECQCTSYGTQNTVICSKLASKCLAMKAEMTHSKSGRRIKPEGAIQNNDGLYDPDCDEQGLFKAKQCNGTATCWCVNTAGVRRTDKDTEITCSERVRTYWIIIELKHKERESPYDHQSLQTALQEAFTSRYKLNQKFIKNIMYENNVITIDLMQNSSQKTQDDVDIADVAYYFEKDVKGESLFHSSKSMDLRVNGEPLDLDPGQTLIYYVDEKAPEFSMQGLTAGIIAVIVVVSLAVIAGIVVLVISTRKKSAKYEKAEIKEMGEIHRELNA
UniProt P16422, 24-314: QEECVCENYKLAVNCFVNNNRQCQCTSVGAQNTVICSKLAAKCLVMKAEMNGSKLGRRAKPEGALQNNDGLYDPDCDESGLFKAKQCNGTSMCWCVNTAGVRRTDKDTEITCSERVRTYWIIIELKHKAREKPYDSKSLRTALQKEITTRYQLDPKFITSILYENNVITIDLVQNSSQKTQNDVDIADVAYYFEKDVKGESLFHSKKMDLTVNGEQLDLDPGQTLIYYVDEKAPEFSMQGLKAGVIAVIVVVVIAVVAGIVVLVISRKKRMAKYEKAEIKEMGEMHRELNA

Columns and labels:
EpCAM (Mus musculus) = EpCAM (Mus musculus) (UniProt Q99JW5); experiment: flow cytometry; details: 2'-F pyrimidines (all C and U; modified form printed as SEQ 67); binding/internalization Kd on mouse BC cells, one-site hyperbola fit; Opti-MEM, 5 mM MgCl2, tRNA and salmon sperm DNA; protein on the cell surface; label: 5'-Cy3
EpCAM (Homo sapiens) = EpCAM (Homo sapiens) (UniProt P16422); experiment: flow cytometry; details: 2'-F pyrimidines (all C and U; modified form printed as SEQ 67); binding/internalization Kd on human BC cells, one-site hyperbola fit; Opti-MEM, 5 mM MgCl2, tRNA and salmon sperm DNA; protein on the cell surface; protein details: endogenous on human breast cancer cell lines; label: 5'-Cy3

“GCGACUGGUUACCCGGUCG [EpCAM aptamer (19 nt)]”: binds (EpCAM (Mus musculus)); binds (EpCAM (Homo sapiens)).
